In publication PMC12582035:

Assays:
AcMYC2L1 = assay: EMSA; conditions: EMSA/Gel-Shift Kit (Beyotime), native PAGE, pH and temperature not stated, recombinant protein, protein details: His
AcMYC2L2 = assay: EMSA; conditions: text names AcMYC2L1/L2, legend only L1; EMSA/Gel-Shift Kit (Beyotime), native PAGE; pH and temperature not stated; recombinant protein; protein details: His
[1] = plus His-AcJAZ2L2 protein, which AcVSP2L1 probe not stated
[2] = unlabeled competitor 1x, 10x, 50x

Row | Sequence | binding result (AcMYC2L1; [1]) | binding result (AcMYC2L1; [2]) | binding result (AcMYC2L2) | binding result (AcMYC2L1; plus His-AcJAZ2L2 protein)
1 | TTATATATAAGACACATGAAGGATCGATTTCGAC (double strand) [AcVSP2L1pro probe 2] | binds more weakly | binds | binds | –
2 | CGTTAGATTAATTCAAATGAATTTTAACCGTAGA (double strand) [AcVSP2L2pro probe] | – | binds | binds | binds more weakly
3 | TGGATTTTTTTACACACGTGCTTCAAATTGTTAAAG (double strand) [AcVSP2L1pro probe 1] | binds more weakly | binds | binds | –

For at least one entry, the source does not settle the construct or the ends of the probe. For part of these data: The comparison behind a weaker result is the experiment's own reference, which may not be listed here. At least one verdict rests on a figure or table, not on a statement of the authors.
